From PMC11711546 (2024)
Numbering of substitutions follows the chain as printed. These are yes or no findings as the source states them, for the method shown. In cells and extracts the contact can be indirect. Some binding calls cover weakened binding; strength is not graded here. Tags and fused reporters may be left off the sequences shown.

Amino acid sequences for entries named in this document (tags omitted).
UniProt P48436: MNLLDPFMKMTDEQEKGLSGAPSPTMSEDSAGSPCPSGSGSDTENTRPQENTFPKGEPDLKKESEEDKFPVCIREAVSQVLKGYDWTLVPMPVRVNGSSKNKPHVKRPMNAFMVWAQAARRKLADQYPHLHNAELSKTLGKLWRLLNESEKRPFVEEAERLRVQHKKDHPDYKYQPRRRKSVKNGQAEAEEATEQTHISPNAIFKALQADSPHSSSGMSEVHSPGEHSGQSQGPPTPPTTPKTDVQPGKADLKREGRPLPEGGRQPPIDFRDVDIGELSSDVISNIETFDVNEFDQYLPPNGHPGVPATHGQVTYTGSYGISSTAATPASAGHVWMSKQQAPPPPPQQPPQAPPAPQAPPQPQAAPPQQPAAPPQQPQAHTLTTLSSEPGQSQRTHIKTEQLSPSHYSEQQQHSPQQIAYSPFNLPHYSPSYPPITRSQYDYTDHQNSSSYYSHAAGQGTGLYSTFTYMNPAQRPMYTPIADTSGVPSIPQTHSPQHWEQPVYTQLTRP

Assays:
Test in all cases: co-IP; IP of TSHZ3-HA (wild-type or mutant) with anti-HA beads; Western blot for SOX9-Flag or MYOCD-Flag and for TSHZ3-HA in the IP eluate; densitometric ratio of the Flag protein to TSHZ3-HA; four or three independent experiments
[1] = biological target: T1, TSHZ3-HA Ser58Gly mutant (human) (UniProt Q63HK5)
T1 sequence: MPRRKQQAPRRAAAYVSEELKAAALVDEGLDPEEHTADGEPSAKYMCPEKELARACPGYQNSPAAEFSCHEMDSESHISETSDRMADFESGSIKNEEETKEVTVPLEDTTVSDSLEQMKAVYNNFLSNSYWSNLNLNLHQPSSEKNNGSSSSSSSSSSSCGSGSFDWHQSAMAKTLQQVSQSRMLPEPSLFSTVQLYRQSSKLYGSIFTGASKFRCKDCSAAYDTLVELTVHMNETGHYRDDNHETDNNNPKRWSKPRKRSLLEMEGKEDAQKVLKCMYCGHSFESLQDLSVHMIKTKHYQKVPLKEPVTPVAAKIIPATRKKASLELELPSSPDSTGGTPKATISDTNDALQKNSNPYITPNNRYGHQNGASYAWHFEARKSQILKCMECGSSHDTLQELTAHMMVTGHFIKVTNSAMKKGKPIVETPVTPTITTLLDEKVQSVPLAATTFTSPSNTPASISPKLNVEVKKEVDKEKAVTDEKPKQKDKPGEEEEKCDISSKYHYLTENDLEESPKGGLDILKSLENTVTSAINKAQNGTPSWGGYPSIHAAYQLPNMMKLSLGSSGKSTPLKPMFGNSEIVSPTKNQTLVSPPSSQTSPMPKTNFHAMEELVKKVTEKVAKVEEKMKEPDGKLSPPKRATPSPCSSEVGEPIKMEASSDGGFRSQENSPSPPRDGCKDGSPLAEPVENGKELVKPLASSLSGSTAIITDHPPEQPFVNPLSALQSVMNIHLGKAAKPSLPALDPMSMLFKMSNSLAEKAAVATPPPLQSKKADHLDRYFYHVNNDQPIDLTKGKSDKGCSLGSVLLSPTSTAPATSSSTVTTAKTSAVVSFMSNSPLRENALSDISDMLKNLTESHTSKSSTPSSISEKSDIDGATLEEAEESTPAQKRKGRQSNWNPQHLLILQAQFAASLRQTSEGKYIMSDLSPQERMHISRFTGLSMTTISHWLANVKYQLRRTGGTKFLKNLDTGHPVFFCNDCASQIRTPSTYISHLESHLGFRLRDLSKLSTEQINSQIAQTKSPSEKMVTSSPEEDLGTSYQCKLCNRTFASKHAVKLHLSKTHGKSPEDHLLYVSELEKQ

[2] = biological target: T2, TSHZ3-HA wild-type (teashirt zinc finger homeobox 3) (human) (UniProt Q63HK5)
T2 sequence: T1 sequence with G58S

[3] = biological target: T3, TSHZ3-HA Ala65Thr mutant (human) (UniProt Q63HK5)
T3 sequence: T1 sequence with G58S, A65T

[4] = biological target: T4, TSHZ3-HA Pro63Leu mutant (human) (UniProt Q63HK5)
T4 sequence: T1 sequence with G58S, P63L

Measured: binding

SOX9-Flag (SRY-box transcription factor 9) (from UniProt P48436 1-509)
binds: [1] | [2]

B1: MYOCD-Flag (myocardin) (protein, UniProt Q8IZQ8 1-938)
chain: MTLLGSEHSLLIRSKFRSVLQLRLQQRRTQEQLANQGIIPPLKRPAEFHEQRKHLDSDKAKNSLKRKARNRCNSADLVNMHILQASTAERSIPTAQMKLKRARLADDLNEKIALRPGPLELVEKNILPVDSAVKEAIKGNQVSFSKSTDAFAFEEDSSSDGLSPDQTRSEDPQNSAGSPPDAKASDTPSTGSLGTNQDLASGSENDRNDSASQPSHQSDAGKQGLGPPSTPIAVHAAVKSKSLGDSKNRHKKPKDPKPKVKKLKYHQYIPPDQKAEKSPPPMDSAYARLLQQQQLFLQLQILSQQQQQQQHRFSYLGMHQAQLKEPNEQMVRNPNSSSTPLSNTPLSPVKNSFSGQTGVSSFKPGPLPPNLDDLKVSELRQQLRIRGLPVSGTKTALMDRLRPFQDCSGNPVPNFGDITTVTFPVTPNTLPNYQSSSSTSALSNGFYHFGSTSSSPPISPASSDLSVAGSLPDTFNDASPSFGLHPSPVHVCTEESLMSSLNGGSVPSELDGLDSEKDKMLVEKQKVINELTWKLQQEQRQVEELRMQLQKQKRNNCSEKKPLPFLAASIKQEEAVSSCPFASQVPVKRQSSSSECHPPACEAAQLQPLGNAHCVESSDQTNVLSSTFLSPQCSPQHSPLGAVKSPQHISLPPSPNNPHFLPSSSGAQGEGHRVSSPISSQVCTAQMAGLHSSDKVGPKFSIPSPTFSKSSSAISEVTQPPSYEDAVKQQMTRSQQMDELLDVLIESGEMPADAREDHSCLQKVPKIPRSSRSPTAVLTKPSASFEQASSGSQIPFDPYATDSDEHLEVLLNSQSPLGKMSDVTLLKIGSEEPHFDGIMDGFSGKAAEDLFNAHEILPGPLSPMQTQFSPSSVDSNGLQLSFTESPWETMEWLDLTPPNSTPGFSALTTSSPSIFNIDFLDVTDLNLNSSMDLHLQQW
binds: all assays above
